# From patent publication US12529705 (dated 2026)
# Sequences of proteins named here, by UniProt entry; tags and fusion partners are left off. A change or cut given only in a name is not applied to a line headed by its entry.
# UniProt Q14114: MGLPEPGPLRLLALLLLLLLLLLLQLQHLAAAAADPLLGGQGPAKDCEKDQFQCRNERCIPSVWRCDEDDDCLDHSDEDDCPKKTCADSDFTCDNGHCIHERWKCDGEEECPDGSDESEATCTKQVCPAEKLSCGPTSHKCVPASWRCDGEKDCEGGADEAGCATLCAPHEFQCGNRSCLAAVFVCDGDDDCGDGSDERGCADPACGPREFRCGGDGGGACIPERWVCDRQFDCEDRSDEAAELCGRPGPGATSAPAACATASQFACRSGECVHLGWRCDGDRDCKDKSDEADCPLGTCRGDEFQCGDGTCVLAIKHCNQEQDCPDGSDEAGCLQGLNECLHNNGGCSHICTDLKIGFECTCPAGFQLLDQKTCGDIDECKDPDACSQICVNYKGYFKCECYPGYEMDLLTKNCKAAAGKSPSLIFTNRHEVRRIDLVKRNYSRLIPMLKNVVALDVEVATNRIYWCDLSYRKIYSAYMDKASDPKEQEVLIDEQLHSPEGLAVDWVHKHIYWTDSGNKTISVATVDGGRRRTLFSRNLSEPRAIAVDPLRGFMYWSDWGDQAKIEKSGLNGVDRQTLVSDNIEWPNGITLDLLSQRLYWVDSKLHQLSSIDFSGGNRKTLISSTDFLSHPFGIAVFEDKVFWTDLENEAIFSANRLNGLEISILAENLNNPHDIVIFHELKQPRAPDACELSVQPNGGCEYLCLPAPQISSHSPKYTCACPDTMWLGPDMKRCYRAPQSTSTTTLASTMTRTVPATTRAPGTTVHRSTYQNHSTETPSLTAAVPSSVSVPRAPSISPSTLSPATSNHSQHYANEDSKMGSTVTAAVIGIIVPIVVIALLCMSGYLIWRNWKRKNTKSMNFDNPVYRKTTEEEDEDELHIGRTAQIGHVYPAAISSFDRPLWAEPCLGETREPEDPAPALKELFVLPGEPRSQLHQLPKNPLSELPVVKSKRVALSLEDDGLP
# No constants are given. Whether binding was seen depends on the method and setting. Some binding calls cover weakened binding; strength is not graded here.
# How the values were obtained:
# [1] = target: full-length protein LRP8 expressed in N2A cells transfected with a cDNA coding for LRP8 (Origene, Cat. No. RC220963) (human) (UniProt Q14114); test: Western blot, lysate of LRP8-transfected N2A cells, antibody at 1 µg/ml
# [2] = target: full-length LRP8 protein (105 kDa) in human brain tissue and cerebrospinal fluid samples (human) (UniProt Q14114); test: sandwich ELISA, GS1 or GS2 as capture antibody, 25F7F1 as detection antibody, brain fraction above 30 kDa
Binder,binding [1],binding [2]
"monoclonal antibody of hybridoma 17E11C2 (antibody, V domains shown) VH: EVQLQQSGPVLVKPGASVKMSCKASGYKFTDYFMNWVKKSHGKSLEWIGVINPYNGGTRYNQKFKGKATLTVDKSSSTAYMELNSLTFEDSAVYYCARETVDLAWFVHWGQGTLVTVSA VL: DVLMTQTPPSLPVTLGDQASISCRSSQSIVYSNGNTYLEWYLQKPGQSPKLLIYKVSNRFSGVPDRFSGSGSGTDFTLKISRVEAEDLGIYYCFQGSHVPLTFGAGTKLELK",binds,
"monoclonal antibody of hybridoma 25F7F1 (antibody, V domains shown, Mouse (BALB/c) hybridoma monoclonal; also called antibody produced by 25F7F1 mouse hybridomas) VH: EVQLQQSGPVLVKPGASVKMSCKASGYKFTDHFMNWVKKNHGKSLEWIGVINPYNGGTRLNPKFKGKATLTVDKSSSTVYMELNSLTFEDSAVYYCARETIDLAWFAYWGQGTLVTVSA VL: DVLMTQTPPSLPVTLGDQASISCRSSQSIVYSNGKTYLEWYLQKPGQSPKLLMYKVSNRFSGVPDRFSGSGSGTDFTLKISSVEAEDLGIYYCFQGSHVPLTFGAGTKLELK",,binds
